Data as given in patent US20260375265A1, “COMPOSITION FOR ALLEVIATING SKIN PIGMENTATION” (LG H & H CO., LTD., priority 2023, published 2026).
At least one structure is not confirmed: it was looked up by name or label, or the drawing left a doubt.

System: TP63
Test: qPCR of TP63 mRNA expression in UVB-irradiated HaCaT cells
Assay type: cell-based, human
Conditions: UVB 10 mJ/cm^2, appropriate concentration, FIG. 3, UVB alone increased
Method: Screening was performed for substances that influence the expression of genes associated with spot pigmentation among various substances having the skin-improving efficacy. Changes in the expression of genes associated with spot pigmentation were examined in cells where melanin synthesis was increased by a-MSH, and substances that restored the expression to the level before a-MSH treatment were selected.
To analyze the efficacy on changes in the mRNA expression of genes associated with skin spot pigmentation, mouse melanoma cells were seeded at […] cells/well in 6-well plates and cultured in a 37 °C/5% CO2 incubator for one day. After replacing the medium with a fresh medium, 10 nM α-MSH was treated, and substances were added to the medium at appropriate concentrations and cultured for one day under the same conditions. Thereafter, total RNA was obtained using AccuPrep Universal RNA Extraction Kit (Bioneer, K-3140), and cDNA was synthesized using AccuPower® RocketScript™ Cycle (Bioneer, K-2202). The expression level of each gene was analyzed by performing qPCR using synthesized cDNA and taqman probe (assay ID: ASCL2-Mm01268891_m1, PPARGC1B-Mm00504730_m1, TP63-Hs00978349_m1).
TP63 expression was increased by 10 mJ/cm^2 of UVB in human keratinocytes, HaCaT. […]

| SMILES | change of TP63 expression |
| --- | --- |
| CCCCCCCCC(CO)CCCCCC (centres unmarked) [hexyldecanol] | decreased |
| CCCCCCc1ccc(O)cc1O [hexylresorcinol] | decreased |
